Consider 1 substance from PMC5216933.

By UniProt entry, the sequences of proteins in these tests, tags left out.
UniProt Q04206: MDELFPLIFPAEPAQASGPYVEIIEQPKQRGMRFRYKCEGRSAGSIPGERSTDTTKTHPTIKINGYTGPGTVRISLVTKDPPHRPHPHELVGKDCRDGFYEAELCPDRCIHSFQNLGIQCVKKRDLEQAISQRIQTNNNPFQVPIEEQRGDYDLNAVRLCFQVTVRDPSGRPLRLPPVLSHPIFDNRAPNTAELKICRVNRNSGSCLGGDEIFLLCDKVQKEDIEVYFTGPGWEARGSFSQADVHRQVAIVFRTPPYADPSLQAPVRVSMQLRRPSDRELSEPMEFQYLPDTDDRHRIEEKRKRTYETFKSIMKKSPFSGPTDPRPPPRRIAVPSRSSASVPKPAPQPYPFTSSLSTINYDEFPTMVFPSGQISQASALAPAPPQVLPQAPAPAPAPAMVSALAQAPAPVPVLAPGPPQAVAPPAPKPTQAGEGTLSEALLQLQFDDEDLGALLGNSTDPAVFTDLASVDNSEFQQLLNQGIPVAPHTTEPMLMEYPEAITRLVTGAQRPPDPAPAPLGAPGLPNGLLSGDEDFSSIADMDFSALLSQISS

The target of the assay is woodchuck metastatic tumor antigen 1 (wk-MTA1), flag-tagged (woodchuck (Marmota monax)) (UniProt M9R048). Kind of assay: co-IP; 293T cells transfected with WHx-EGFP and flag-wk-MTA1; whole-cell lysates (RIPA: 120 mM NaCl, 50 mM Tris pH 7.5, 5 mM EDTA, 0.5% NP-40) immunoprecipitated with monoclonal anti-GFP or anti-FLAG antibody overnight at 4°C, protein-G sepharose, immunoblot.

Results are given in words; binding and its absence hold for the method and conditions named. In cells and extracts the contact can be indirect. Binding calls can cover weak binding; strength is not graded here.

Take “p65 of NF-κB (from UniProt Q04206 1-551)”: the binding result is reported as “binds”.
